Data: PubChem BioAssay (NCATS)
The shares of active, inactive and inconclusive entries below differ from those in the screen. For some assays here: Where the call is inconclusive, the potency comes from a doubtful curve fit. For some assays here: “Side channel” marks fits to a control or component signal instead of the main read-out. Active and inactive are the calls of the source. Unless noted, the call rests on the fitted dose curve; in most records, active means well fitted curve in the direction sought with a large enough effect; inconclusive means small, poorly fitted or top-dose-only effect, or another doubt; inactive means no such curve, though single readings can be large; an effect the other way counts as inactive or inconclusive.

Amino acid sequences for entries named in this document (tags omitted). A change or cut given only in a name is not applied to a line headed by its entry.
UniProt O15648: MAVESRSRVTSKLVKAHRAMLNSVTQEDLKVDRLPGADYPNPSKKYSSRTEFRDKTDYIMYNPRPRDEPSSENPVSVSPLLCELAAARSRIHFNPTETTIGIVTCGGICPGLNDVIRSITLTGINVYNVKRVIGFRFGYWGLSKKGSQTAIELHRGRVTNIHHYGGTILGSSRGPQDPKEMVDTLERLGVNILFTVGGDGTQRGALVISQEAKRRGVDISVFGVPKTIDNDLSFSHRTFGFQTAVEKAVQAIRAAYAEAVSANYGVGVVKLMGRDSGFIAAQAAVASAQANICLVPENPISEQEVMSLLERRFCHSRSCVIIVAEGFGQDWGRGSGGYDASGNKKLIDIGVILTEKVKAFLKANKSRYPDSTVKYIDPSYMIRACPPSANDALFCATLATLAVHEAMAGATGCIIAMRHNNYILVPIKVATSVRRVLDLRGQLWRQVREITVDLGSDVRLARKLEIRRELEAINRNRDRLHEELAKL
UniProt O94782: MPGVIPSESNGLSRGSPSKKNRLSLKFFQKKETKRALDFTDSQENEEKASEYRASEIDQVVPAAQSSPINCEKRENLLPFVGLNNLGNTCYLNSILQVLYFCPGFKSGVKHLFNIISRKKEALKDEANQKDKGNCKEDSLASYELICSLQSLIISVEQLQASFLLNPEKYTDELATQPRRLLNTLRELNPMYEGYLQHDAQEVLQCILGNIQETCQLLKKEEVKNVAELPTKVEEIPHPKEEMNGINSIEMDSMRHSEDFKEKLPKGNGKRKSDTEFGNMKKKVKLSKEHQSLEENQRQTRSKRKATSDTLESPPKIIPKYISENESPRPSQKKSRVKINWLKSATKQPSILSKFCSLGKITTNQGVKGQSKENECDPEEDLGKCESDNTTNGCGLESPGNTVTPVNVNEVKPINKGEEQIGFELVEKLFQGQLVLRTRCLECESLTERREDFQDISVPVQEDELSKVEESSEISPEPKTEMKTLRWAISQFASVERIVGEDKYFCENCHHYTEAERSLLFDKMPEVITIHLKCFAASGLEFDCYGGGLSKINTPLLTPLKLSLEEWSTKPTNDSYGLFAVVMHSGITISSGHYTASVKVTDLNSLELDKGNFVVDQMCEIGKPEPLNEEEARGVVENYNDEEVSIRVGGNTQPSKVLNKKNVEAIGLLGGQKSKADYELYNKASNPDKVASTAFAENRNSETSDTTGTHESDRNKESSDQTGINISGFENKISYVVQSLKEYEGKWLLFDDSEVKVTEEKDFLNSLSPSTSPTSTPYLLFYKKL
UniProt P15289: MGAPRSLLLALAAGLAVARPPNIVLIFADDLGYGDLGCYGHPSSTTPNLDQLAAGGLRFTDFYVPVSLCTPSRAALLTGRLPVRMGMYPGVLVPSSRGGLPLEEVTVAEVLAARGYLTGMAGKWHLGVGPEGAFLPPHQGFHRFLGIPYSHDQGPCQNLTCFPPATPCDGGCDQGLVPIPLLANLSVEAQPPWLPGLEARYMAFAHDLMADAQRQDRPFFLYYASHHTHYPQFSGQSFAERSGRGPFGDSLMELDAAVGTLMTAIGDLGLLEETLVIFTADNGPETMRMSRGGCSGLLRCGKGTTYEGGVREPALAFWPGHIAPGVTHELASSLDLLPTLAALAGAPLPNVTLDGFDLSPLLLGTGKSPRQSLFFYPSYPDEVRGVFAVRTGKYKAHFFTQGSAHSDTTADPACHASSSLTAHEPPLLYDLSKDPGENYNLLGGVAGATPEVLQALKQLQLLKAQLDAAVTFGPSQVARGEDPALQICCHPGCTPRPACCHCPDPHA
UniProt P20594: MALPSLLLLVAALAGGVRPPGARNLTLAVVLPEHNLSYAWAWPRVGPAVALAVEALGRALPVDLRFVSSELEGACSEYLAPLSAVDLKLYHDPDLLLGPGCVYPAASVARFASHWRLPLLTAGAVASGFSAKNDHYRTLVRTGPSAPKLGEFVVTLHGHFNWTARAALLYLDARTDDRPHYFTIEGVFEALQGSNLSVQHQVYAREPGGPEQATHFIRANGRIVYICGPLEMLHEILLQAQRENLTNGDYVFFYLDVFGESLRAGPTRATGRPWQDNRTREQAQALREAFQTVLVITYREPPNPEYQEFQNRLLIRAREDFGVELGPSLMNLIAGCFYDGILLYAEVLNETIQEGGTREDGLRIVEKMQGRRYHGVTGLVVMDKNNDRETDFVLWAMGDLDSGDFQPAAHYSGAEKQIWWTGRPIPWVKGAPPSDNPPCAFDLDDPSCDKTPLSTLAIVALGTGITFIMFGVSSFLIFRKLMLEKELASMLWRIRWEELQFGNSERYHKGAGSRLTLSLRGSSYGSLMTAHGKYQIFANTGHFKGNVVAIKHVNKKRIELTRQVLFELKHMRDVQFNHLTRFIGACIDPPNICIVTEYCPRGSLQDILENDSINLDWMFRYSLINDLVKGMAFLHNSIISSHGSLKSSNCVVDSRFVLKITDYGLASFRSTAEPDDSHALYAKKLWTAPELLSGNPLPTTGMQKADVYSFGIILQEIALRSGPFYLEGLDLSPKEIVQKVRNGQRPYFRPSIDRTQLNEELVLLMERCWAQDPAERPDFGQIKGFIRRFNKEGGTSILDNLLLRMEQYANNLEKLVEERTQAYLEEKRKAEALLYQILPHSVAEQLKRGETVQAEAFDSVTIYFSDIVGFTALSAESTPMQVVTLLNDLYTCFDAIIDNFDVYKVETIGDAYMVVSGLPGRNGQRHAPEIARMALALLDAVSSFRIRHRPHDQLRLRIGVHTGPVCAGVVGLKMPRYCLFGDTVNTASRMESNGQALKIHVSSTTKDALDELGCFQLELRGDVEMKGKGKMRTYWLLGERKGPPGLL
UniProt P54132: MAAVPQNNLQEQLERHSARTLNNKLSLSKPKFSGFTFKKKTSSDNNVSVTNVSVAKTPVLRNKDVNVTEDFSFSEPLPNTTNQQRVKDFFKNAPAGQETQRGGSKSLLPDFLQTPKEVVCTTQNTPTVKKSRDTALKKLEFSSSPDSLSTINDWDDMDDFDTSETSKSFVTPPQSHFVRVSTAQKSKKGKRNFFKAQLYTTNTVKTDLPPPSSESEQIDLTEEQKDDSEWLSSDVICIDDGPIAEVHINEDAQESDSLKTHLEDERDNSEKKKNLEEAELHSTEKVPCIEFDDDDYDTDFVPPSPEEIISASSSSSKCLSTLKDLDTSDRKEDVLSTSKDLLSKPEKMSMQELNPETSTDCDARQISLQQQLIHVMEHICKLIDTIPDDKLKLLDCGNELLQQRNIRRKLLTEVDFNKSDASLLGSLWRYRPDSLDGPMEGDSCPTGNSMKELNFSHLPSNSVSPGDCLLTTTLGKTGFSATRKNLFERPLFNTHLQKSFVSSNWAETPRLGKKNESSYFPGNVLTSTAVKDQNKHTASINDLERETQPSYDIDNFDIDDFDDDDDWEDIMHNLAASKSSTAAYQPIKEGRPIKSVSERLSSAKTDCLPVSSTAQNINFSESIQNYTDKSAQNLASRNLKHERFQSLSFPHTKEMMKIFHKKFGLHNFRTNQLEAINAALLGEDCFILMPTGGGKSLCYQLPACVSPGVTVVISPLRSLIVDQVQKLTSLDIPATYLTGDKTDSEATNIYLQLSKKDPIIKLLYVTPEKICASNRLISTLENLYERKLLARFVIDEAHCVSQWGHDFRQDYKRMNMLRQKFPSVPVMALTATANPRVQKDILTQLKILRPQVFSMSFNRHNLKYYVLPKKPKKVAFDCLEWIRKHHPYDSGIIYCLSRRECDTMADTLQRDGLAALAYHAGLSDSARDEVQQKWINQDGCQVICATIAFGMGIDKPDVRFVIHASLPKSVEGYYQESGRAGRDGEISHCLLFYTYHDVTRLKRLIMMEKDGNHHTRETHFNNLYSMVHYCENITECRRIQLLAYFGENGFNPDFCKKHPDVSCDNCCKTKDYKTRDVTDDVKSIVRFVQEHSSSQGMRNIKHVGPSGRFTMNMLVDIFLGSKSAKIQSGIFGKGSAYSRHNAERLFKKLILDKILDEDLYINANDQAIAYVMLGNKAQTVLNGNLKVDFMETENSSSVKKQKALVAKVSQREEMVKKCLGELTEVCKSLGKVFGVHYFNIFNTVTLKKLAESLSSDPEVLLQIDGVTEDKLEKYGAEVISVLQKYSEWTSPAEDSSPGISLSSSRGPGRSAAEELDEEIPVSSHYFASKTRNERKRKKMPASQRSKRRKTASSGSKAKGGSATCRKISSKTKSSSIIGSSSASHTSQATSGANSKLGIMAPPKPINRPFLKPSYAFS
UniProt P16066: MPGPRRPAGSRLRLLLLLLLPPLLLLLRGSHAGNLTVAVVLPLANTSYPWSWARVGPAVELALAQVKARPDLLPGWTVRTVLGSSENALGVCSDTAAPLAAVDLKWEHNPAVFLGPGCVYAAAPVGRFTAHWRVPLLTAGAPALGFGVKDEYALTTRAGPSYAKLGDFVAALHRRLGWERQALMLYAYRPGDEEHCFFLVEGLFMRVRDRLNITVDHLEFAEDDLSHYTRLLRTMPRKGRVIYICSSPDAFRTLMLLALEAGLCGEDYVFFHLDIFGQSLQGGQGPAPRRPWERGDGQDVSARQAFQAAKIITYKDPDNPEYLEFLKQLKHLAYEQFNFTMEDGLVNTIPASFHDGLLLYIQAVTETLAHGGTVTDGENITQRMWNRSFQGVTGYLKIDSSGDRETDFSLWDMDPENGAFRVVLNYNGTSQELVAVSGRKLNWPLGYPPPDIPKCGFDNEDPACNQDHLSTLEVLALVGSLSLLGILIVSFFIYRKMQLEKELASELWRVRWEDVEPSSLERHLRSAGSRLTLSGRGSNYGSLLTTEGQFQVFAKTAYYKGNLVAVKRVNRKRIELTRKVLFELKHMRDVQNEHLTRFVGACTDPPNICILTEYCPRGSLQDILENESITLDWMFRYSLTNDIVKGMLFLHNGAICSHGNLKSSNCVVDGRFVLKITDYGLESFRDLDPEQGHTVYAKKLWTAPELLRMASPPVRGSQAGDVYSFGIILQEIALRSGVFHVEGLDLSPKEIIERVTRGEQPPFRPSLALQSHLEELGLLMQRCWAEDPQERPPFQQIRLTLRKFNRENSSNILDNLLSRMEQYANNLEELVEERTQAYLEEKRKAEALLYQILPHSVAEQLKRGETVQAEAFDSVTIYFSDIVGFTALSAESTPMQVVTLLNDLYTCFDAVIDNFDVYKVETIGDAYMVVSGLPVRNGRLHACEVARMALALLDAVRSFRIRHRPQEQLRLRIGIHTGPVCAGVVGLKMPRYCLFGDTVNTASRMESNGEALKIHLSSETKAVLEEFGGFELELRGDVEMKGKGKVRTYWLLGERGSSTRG
UniProt P78324, whole entry, looked up: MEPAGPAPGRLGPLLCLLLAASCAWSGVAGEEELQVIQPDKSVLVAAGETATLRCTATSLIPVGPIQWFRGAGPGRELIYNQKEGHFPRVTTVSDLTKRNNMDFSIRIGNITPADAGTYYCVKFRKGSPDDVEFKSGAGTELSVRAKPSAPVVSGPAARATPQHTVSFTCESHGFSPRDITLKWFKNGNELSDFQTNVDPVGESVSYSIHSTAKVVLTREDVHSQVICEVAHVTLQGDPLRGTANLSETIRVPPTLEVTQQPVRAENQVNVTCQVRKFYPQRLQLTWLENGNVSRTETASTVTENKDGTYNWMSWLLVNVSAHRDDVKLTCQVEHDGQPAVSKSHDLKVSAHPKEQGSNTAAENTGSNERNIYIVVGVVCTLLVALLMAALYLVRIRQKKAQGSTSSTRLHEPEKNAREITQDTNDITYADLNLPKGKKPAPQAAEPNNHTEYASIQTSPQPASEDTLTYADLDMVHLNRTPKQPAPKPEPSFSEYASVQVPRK
UniProt Q08722, whole entry, looked up: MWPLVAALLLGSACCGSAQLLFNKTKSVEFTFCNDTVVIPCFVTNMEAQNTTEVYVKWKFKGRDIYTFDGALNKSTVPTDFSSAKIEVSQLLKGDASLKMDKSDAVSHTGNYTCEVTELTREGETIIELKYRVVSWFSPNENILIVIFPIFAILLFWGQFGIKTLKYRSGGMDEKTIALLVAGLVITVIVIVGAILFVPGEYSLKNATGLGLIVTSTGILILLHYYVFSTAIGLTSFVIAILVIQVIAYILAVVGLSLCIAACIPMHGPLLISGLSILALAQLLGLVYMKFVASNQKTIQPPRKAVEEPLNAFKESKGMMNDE

Assays:
[1] = target: ATP-dependent 6-phosphofructokinase (Trypanosoma brucei brucei) (UniProt O15648); assay: qHTS Validation Assay to Find Inhibitors of T. brucei phosphofructokinase (AID 485368); details: activity change, negative = inhibition: at 57.5 µM (top of the series); further: potency means the concentration at half of the fitted maximal effect
Procedure, shortened: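 Activity was normalized between 1x (1.25 nM) PFK wells as no inhibition and enzyme-free wells as full inhibition, from luminescence after ADP-Glo detection of ADP made from 0.5 mM F6P and 0.1 mM ATP over 45 min.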

[2] = target: ATPase family AAA domain-containing protein 5 (Homo sapiens) (UniProt Q96QE3); assay: Validation screen for small molecules that inhibit ELG1-dependent DNA repair in human embryonic kidney (HEK293T) cells expressing luciferase-tagged ELG1 (AID 493107); details: HEK293T ELG1-luciferase level, luminescence, 5-fluorouridine co-treatment, 16 h; activity change, negative = decrease: at 46.1 µM (top of the series); further: potency means the concentration at half of the fitted maximal effect; nearly all actives have a fitted effect of over 70% in size
Procedure, shortened: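 Luminescence from ONE-Glo, developed 30 min at room temperature, served as read-out of ELG1-luciferase levels. Beforehand, reporter HEK293T cells received 5-fluorouridine plus test compound for 16 hr at 37 °C.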

[3] = target: Ubiquitin carboxyl-terminal hydrolase 1 (Homo sapiens) (UniProt O94782); assay: Inhibitors of USP1/UAF1: Pilot qHTS (AID 504865); further: potency means the concentration at half of the fitted maximal effect; nearly all actives have a fitted effect of over 35% in size
Procedure, shortened: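 Enzyme-free wells gave the negative control, while test wells held 1nM USP1/UAF1 preincubated with compound for 15 min at room temperature. Ub-Rho at 150nM final started the reaction, and fluorescence at 480/540 nm was recorded kinetically.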

[4] = qHTS for Inhibitors of ATXN expression: Validation (AID 588378); further: potency means the concentration at half of the fitted maximal effect; nearly all actives have a fitted effect of over 75% in size
Procedure, shortened: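 After a 2 h attachment and 24 h compound incubation, HEK293-ATXN2-FFLuc wells are read for fluorescence at 405 nm excitation/525 nm emission as a viability measure, then for Bright-Glo luminescence reflecting ATXN2 expression.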

[5] = target: Arylsulfatase A (Homo sapiens) (UniProt P15289); assay: qHTS screen for enhancers of Arylsulfatase A (ASA1): LOPAC Validation Assay (AID 720538); details: activity change, positive = activation: at 57.5 µM (top of the series); further: potency means the concentration at half of the fitted maximal effect; on activity change, positive = activation: 0% is about no effect
Procedure, shortened: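 Cell-based enhancement test: residual ASA activity in SV40-transformed I179S patient fibroblasts is measured by pNCS turnover (0.5mM final, 14h, room temperature) following 48h compound incubation; higher fluorescence indicates activation.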

[6] = Natriuretic polypeptide receptor (hNpr1) antagonism - Pilot counterscreen GloSensor control cell line (AID 1347045; calls by dose curve; further: potency means the concentration at half of the fitted maximal effect)
Procedure, shortened: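 Luminescence was read before and 20 min after adding 50 uM SNP, which stimulates soluble guanylyl cyclase. The HEK293 cells expressing the GloSensor cGMP sensor had been preloaded with 2% reagent for 2 h and treated with compound.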

[7] = target: Atrial natriuretic peptide receptor 2 (Homo sapiens) (UniProt P20594); assay: Natriuretic polypeptide receptor (hNpr2) antagonism - Pilot subtype selectivity assay (AID 1347050; calls by dose curve; further: potency means the concentration at half of the fitted maximal effect; on activity change, negative = inhibition: on the % scale 0 is the no-effect control and ±100 the full control effect)
Procedure, shortened: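 Pilot selectivity screen against hNpr2: HEK293 cGMP-sensor cells are treated with LOPAC1280 compounds, then with hNppC peptide at 1 nM final. The cGMP-driven luminescence change over 20 min at room temperature is the read-out.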

[8] = qHTS to identify inhibitors of the type 1 interferon - major histocompatibility complex class I in skeletal muscle: primary screen against the NCATS LOPAC collection (AID 1347405); details: iHSKM muscle cells, IFN-b-induced MHC-I HiBiT luminescence, 24 h; activity change, negative = inhibition: at 45.9 µM (top of the series);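 further: lytic HiBiT luminescence reporting HLA-B protein level; potency means the concentration at half of the fitted maximal effect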
Procedure, shortened: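 Luminescence from HiBiT fused to endogenous HLA-B in CRISPR-engineered human myoblasts served as the read-out. Cells received 4.0 ng/ml IFN-beta plus compound (seven concentrations, 1:4.3 steps, highest 46 uM final) for 24 hrs before lytic detection.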

[9] = Primary qHTS for small molecule stabilizers of the endoplasmic reticulum resident proteome: Secreted ER Calcium Modulated Protein (SERCaMP) assay (AID 1508630); details: SH-SY5Y GLuc-SERCaMP secretion, thapsigargin, luminescence; activity change, negative = inhibition: at 38.4 µM (top of the series) unless noted; further: potency means the concentration at half of the fitted maximal effect; on activity change, negative = inhibition: on the % scale 0 is the no-effect control and ±100 the full control effect
Procedure, shortened: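 GLuc-SERCaMP-expressing SH-SY5Y cells, pretreated 16 h with compound, are challenged with thapsigargin to empty ER calcium stores; after 4 h, coelenterazine is added directly to the medium and luminescence is imaged.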

[10] = target: Endonuclease 4 (Escherichia coli (strain K12)) (UniProt P0A6C1); assay: Counterscreen for APE1 Inhibitors: qHTS Validation Assay for Inhibitors of Endonuclease IV (AID 1708); further: potency means the concentration at half of the fitted maximal effect
Procedure, shortened: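 qHTS concentration-response format; LOPAC1280 tested under APE1-screen conditions. 2 nM enzyme, 15 min compound preincubation at RT, then 50 nM TAMRA/BHQ-2 abasic substrate; kinetic fluorescence read, three reads at 60 s intervals.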

[11] = target: RecQ-like DNA helicase BLM (Homo sapiens) (UniProt P54132); assay: qHTS Validation Assay for Inhibitors of Bloom's syndrome helicase (BLM) (AID 2364); further: potency means the concentration at half of the fitted maximal effect;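 on activity change, negative = inhibition: plate controls were DMSO vehicle for no effect and enzyme-free control for full effect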
Procedure, shortened: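 Forked 20-bp duplex substrate (200 nM, TAMRA/BHQ-2) plus 2 mM ATP added after 15 min compound preincubation with 50 nM enzyme, pH 8.0, poly(dI-dC) 2.5 ug/ml. Strand separation followed by fluorescence (525/598 nm) over 2 h, normalized to enzyme-free and DMSO controls.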

[12] = Cytometry Cell-Based qHTS for Inhibitors of the mTORC1 Signaling Pathway in MEF cells (AID 2668); further: potency means the concentration at half of the fitted maximal effect;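 on activity change, negative = inhibition: Tsc2-/- p53-/- mouse embryonic fibroblasts stably re-expressing wild-type Tsc2; percent cells positive for phospho-rpS6 Ser235/236 relative to propidium iodide stain; plate controls were DMSO wells for no effect and 7.5 nM rapamycin control wells for full effect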
Procedure, shortened: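 In MEFs grown in DMEM + 10% FBS, a 24 hrs compound exposure preceded imaging of phospho-rpS6 Ser235/236 by laser-scanning cytometry.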

[13] = Validation screen for small molecules that induce DNA re-replication in MCF 10A normal breast cells (AID 463097); further: potency means the concentration at half of the fitted maximal effect; nearly all actives have a fitted effect of over 60% in size
Procedure, shortened: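 Following 48 hr compound incubation (37 C, 5% CO2), MCF 10A cells receive Hoechst for 40 min at 37 C. Nuclei are then scanned (excitation 405 nm, emission 500-530 nm) for total fluorescence intensity.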

[14] = Quantitative high throughput screen for delayed death inhibitors of the malarial parasite plastid, 96 hour incubation (AID 488745); further: nearly all actives have a fitted effect of over 70% in size; further: potency means the concentration at half of the fitted maximal effect;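 on activity change, negative = inhibition: luciferase-expressing P. falciparum in erythrocytes at 2% hematocrit and 0.1% parasitemia; on the % scale 0 is the no-effect control and ±100 the full control effect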
Procedure, shortened: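 Infected erythrocytes were added to compound in Albumax-supplemented RPMI 1640 at 0.1% parasitemia and 2% hematocrit (final), incubated 96 h at 37 C under 5% CO2, then luciferase reagent was added and luminescence measured.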

[15] = Nrf2 qHTS screen for inhibitors: Validation (AID 493153; active means well fitted inhibition curve with a large enough effect in the main read-out, with a control signal flat, not every such curve was filed as active; inconclusive means small, poorly fitted or top-dose-only effect, or effect the other way, or a change in a side signal; inactive means no such curve, though single readings can be large or run the other way; further: potency means the concentration at half of the fitted maximal effect;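 on activity change, negative = inhibition: A549 cells with ARE-driven firefly luciferase reporter reporting Nrf2 activity; % of control where 0% means no effect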)
Procedure, shortened: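 Luminescence from an ARE-firefly luciferase reporter in A549 cells gives Nrf2 inhibition; an earlier CellTiter-Fluor fluorescent read flags cytotoxicity. Cells in 5% FBS OPTI-MEM received compound dilution series for 18-24 h at 37°C.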

[16] = qHTS for Inhibitors of ATXN expression: Validation of Cytotoxic Assay (AID 588349); further: potency means the concentration at half of the fitted maximal effect
Procedure, shortened: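 Read-out: ATP-based luminescence (CellTiter Glo) reflecting viability of HEK293 cells after 72 hr incubation at 37 degrees C with a concentration series of each compound.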

[17] = target: Atrial natriuretic peptide receptor 1 (Homo sapiens) (UniProt P16066); assay: Natriuretic polypeptide receptor (hNpr1) antagonism - Pilot screen (AID 1347049; calls by dose curve;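 further: agonist-evoked cGMP luminescence read 20 min after hNppA addition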; further: potency means the concentration at half of the fitted maximal effect; on activity change, negative = inhibition: on the % scale 0 is the no-effect control and ±100 the full control effect)
Procedure, shortened: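 Readout is cGMP-driven firefly luciferase luminescence in HEK293 cells carrying hNpr1 and a PDE5-domain GloSensor, read before and 20 min after 0.1 nM hNppA stimulation. Cells had 2% substrate reagent for 2 h and test compound for 30 min.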

[18] = target: Tyrosine-protein phosphatase non-receptor type substrate 1 (Homo sapiens) + Leukocyte surface antigen CD47 (Homo sapiens) (UniProt P78324+Q08722); assay: CD47-SIRPalpha protein protein interaction - HTRF assay qHTS validation (AID 1347058; active means well fitted curve in the direction sought with a large enough effect in the signal ratio, not every such curve was filed as active; inconclusive means small, poorly fitted or top-dose-only effect, or effect the other way, or a change in a side signal; inactive means no such curve, though single readings can be large or run the other way; the % refers to the signal ratio)
Procedure, shortened: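 TR-FRET read (Ch1/Ch2 ratio) of soluble extracellular CD47 and Avi-biotinylated SIRPalpha domains in PBS pH 7.4 with 0.05% IGEPAL; 7-point compound titration. Sequential 30 min room-temperature steps; non-biotinylated SIRPalpha as control inhibitor.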

[19] = target: Lysine-specific demethylase 5B (Homo sapiens) (UniProt Q9UGL1); assay: Optimization screen for KDM5B Histone Demethylases FDH coupled qHTS against the LOPAC library (AID 1347166); details: KDM5B demethylation, FDH-coupled NADH fluorescence; activity, negative = inhibition: at 57.5 µM (top of the series) unless noted; further: 0% is about no effect
Procedure, shortened: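 KDM5BDeltaAP (200nM final) preincubated 10 min with compound, then 12.5uM H3K4Me3, 25uM a-ketoglutarate, ascorbate, Fe(II), NAD+ and FDH added; 50mM HEPES pH 7.5, 0.01% Tween-20. NADH fluorescence (340/450 nm) change over 30 min, room temperature.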

Compound	Potency [1]	Potency [2]	Potency [3]	Potency [4]	Potency [5]	Potency [6]	Potency [7]	Potency [8]	Potency [9]	Potency [10]	Potency [11]	Potency [12]	Potency [13]	Potency [14]	Potency [15]	Potency [16]	Potency [17]	activity change, positive = activation [5]	Potency [18]	Potency [19]
N#C/C(=C\c1ccc(-c2cc(Cl)ccc2Cl)o1)C(=O)Nc1cccc2ncccc12	inconclusive: 23.9 µM [activator, partial curve, poor fit]	active: 16.4 µM	active: 15.8 µM	inconclusive: 5.01 µM [inhibitor, single point]	inconclusive: 23.9 µM [activator, single point]	inconclusive: 26.1 µM [inhibitor, single point]	inconclusive: 26.1 µM [inhibitor, single point]	active: 14.1 µM	inconclusive: 25.1 µM [inhibitor, single point]											
C=C1C(=O)O[C@@H]2[C@H]3O[C@]3(C)CCC=C(C)CC[C@@H]12	inactive	active: 25.9 µM		inconclusive: 39.8 µM [inhibitor, single point]		active: 18.5 µM	active: 11.7 µM	active: 14.1 µM	inactive	inconclusive: 12.6 µM [inhibitor, partial curve, poor fit]	inactive	inconclusive: 2.93 µM [falling, full curve]	active: 14.1 µM	inconclusive: 9.28 µM [inhibitor, single point]	inconclusive: 13 µM [inhibitor, partial curve]	inconclusive: 35.5 µM [cytotoxic, single point]	inconclusive: 21.3 µM [inhibitor, single point]			
CC(C)(C)c1ccc(/C=C/C(=O)Nc2ccc3c(c2)OCCO3)cc1	inactive	active: 18.3 µM		inconclusive: 39.8 µM [inhibitor, single point]		active: 16.5 µM	inconclusive: 20.7 µM [inhibitor, single point]					inconclusive: 23.3 µM [falling, single point]			active: 10.3 µM		active: 23.9 µM	inconclusive: 14.7% [activator]	inconclusive: 14.7 µM [side channel, falling, single point]	inactive
CC[n+]1c(/C=C/C=C2/N(C)c3ccccc3C2(C)C)sc2ccccc21	inconclusive: 4.26 µM [falling, full curve]	active: 2.31 µM	active: 31.6 µM	active: 0.891 µM		active: 0.233 µM	active: 0.233 µM	active: 5.01 µM	inconclusive: 25.1 µM [inhibitor, single point]			active: 0.0826 µM				active: 3.16 µM	active: 0.213 µM		inconclusive: 8.26 µM [side channel, falling, partial curve]	
O=C(O)CNC(=O)C(CS)Cc1ccccc1 (stereo not given)						inconclusive: 0.826 µM [inhibitor, partial curve, poor fit]	inactive					inactive		inactive	inactive		inactive			
CCCCCC(O)c1cccc(OCc2ccc3ccccc3n2)c1 (stereo not given)	inconclusive: 15.1 µM [falling, single point]			inconclusive: 39.8 µM [inhibitor, single point]		inconclusive: 18.5 µM [inhibitor, single point]	inconclusive: 14.7 µM [inhibitor, single point]		inactive	inconclusive: 12.6 µM [inhibitor, partial curve]	inconclusive: 35.5 µM [inhibitor, partial curve]		inconclusive: 20 µM [activator, single point]	inconclusive: 4.65 µM [inhibitor, single point]	inconclusive: 32.6 µM [inhibitor, single point]	inconclusive: 39.8 µM [cytotoxic, single point]	inconclusive: 10.7 µM [inhibitor, partial curve]			
